Reference: the supplement of paper PMC9135407
Values joined by “and” are separate entries in the source; they are usually repeats but may differ in a detail not shown here. Equal values may be shown once. Where a name gives a salt, the structure may show the parent alone. ± gives the standard deviation of the averaged measurements. The list shows a part of the results. Part of the spread comes from offsets between plates or batches.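 Culture-activated primary human stellate myofibroblasts, where regained lipid droplets signal inactivation. Value: share of Hoechst-counted cells above a per-plate Bodipy cutoff, in duplicate wells, with DMSO negative and nortriptyline positive controls on each plate. Hits: a control-normalized score above the plate's top-tenth-percentile nortriptyline wells, or one of a plate's three best wells. Final well concentrations are not given.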

Tested on: primary human hepatic stellate cells (donor 1)
Test: percent Bodipy-positive cells; higher = more lipid droplet accumulation
Settings: 48 h
Procedure: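 Primary lipid accumulation screen in primary human hepatic stellate cell myofibroblasts (donor 1, passage 8) in 384-well plates. 100 nL of library compound was pin-transferred into 30 µL medium in duplicate, and cells were treated for 48 h. The 'Scaled' score combines distance from plate baseline, toxicity and reproducibility penalties, and is normalised to nortriptyline (positive) and DMSO (negative) controls on each plate. A hit is defined as scaled >0.85 or among the top 3 wells per plate.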

[1] = library stock concentration: 1 mM
[2] = library stock concentration: 10 mM
[3] = library stock concentration: 3.33 mM
[4] = library stock concentration: 80 uM
[5] = library stock concentration: 400 uM
[6] = library stock concentration: 2 mM

CCCCC[C@@](C)(O)/C=C/[C@H]1C=CC(=O)[C@@H]1C/C=C\CCCC(=O)O [15(R)-15-methyl Prostaglandin A2]
percent Bodipy-positive cells [1]: 12 ± 6.5%

O=C(O)Cc1c[nH]c2ccc(O)cc12 [5-Hydroxyindolacetic acid]
percent Bodipy-positive cells [2]: 36.6 ± 5.5%

CCCCC[C@H](O)CC[C@@H]1[C@@H](C/C=C\CCCC(=O)O)[C@@H](O)C[C@H]1O [13,14-dihydro Prostaglandin F2.alpha.]
percent Bodipy-positive cells [1]: 13.2 ± 4.4%

N=C(N)SCCC[C@H](N)C(=O)O [Thioarginine (hydrobromide)]
percent Bodipy-positive cells [1]: 8.69 ± 1.2%

Cc1cccc(C)c1OCC(C)N (centres undefined) [Mexiletine hydrochloride]
percent Bodipy-positive cells: 56.7 ± 4.2%
percent Bodipy-positive cells (library stock concentration: 9.3 mM): 28.3 ± 5.6%
percent Bodipy-positive cells [2]: 26 ± 6.3%

Cc1cccc(C)c1OCC(C)N (centres undefined) [Mexiletine HCl]
percent Bodipy-positive cells [3]: 14.2 ± 0.28%
percent Bodipy-positive cells [2]: 51 ± 0.88%

Cc1cccc(C)c1OCC(C)N (centres undefined) [Mexiletene hydrochloride]
percent Bodipy-positive cells [2]: 80.1 ± 5.4%

CN1[C@@H]2CC[C@H]1C[C@@H](OC(=O)c1c[nH]c3ccccc13)C2 [Tropisetron]
percent Bodipy-positive cells [3]: 54.3 ± 5%
percent Bodipy-positive cells [2]: 44.8 ± 0.67%

CN1[C@@H]2CC[C@H]1C[C@@H](OC(=O)c1c[nH]c3ccccc13)C2 [Tropisetron HCl]
percent Bodipy-positive cells: 67 ± 8.4%
percent Bodipy-positive cells (library stock concentration: 7 mM): 30.1 ± 1.8%

CN1[C@@H]2CC[C@H]1C[C@@H](OC(=O)c1c[nH]c3ccccc13)C2 [Tropisetron hydrochloride]
percent Bodipy-positive cells [2]: 24.8 ± 12%

C=CC(=O)Nc1cc(-n2c(=O)ccc3cnc4ccc(-c5ccc(NS(C)(=O)=O)cc5)cc4c32)ccc1C
percent Bodipy-positive cells [4]: 8.84 ± 1.9%
percent Bodipy-positive cells [5]: 11.3 ± 3%
percent Bodipy-positive cells [6]: 6.91 ± 2.6%
percent Bodipy-positive cells [2]: 31.7 ± 18%

C(=C/CCNC)(/c1c2cccc1)\c3c(cccc3)CC2.Cl [Nortriptyline hydrochloride]
percent Bodipy-positive cells [2]: 100%

CCCCC[C@H](O)/C=C/[C@H]1C(=O)C[C@H](O)[C@@H]1C/C=C\CCCC(=O)NC(CO)CO [Prostaglandin D2 serinol amide]
percent Bodipy-positive cells [1]: 9.98 ± 0.56%

Cc1ccc(F)c(NC(=O)Nc2ccc(-c3cccc4[nH]nc(N)c34)cc2)c1
percent Bodipy-positive cells [2]: 67.8 ± 1.3%

Cc1cc(=O)[nH]c(=S)[nH]1 [Methylthiouracil]
percent Bodipy-positive cells [3]: 11.6 ± 6.2%
percent Bodipy-positive cells [2]: 28.3% and 44%

O=c1cc(N2CCNCC2)oc2c(-c3ccccc3)cccc12
percent Bodipy-positive cells [2]: 78.292 ± 0.024%

CCOc1ccc(Nc2nc(-c3c(C)nc4ccccn34)cs2)cc1
percent Bodipy-positive cells [2]: 39.6 ± 4.5%

CN1CCC(=C2c3ccccc3CCc3sccc32)CC1.O=C(O)/C=C\C(=O)O [Pizotyline]
percent Bodipy-positive cells [2]: 80.4 ± 6.2%

Cc1cc(I)ccc1Nc1c(C(=O)NOCC2CC2)cc(F)c(F)c1F
percent Bodipy-positive cells [2]: 23.3 ± 14%

CC(=O)[C@H]1CC[C@H]2[C@@H]3C=CC4=CC(=O)CC[C@@]4(C)[C@@H]3CC[C@]12C [Dydrogesterone]
percent Bodipy-positive cells: 10.6 ± 1.4%
percent Bodipy-positive cells [3]: 17.6 ± 3.1%
percent Bodipy-positive cells [2]: 43.7 ± 14%

Nc1nc(CC(=O)Nc2ccc(CCNC[C@H](O)c3ccccc3)cc2)cs1 [Mirabegron]
percent Bodipy-positive cells [3]: 15.3 ± 8.9%
percent Bodipy-positive cells [2]: 54.6 ± 5%

NC[C@@H]1O[C@H](O[C@H]2[C@@H](O)[C@H](O[C@@H]3[C@@H](O)[C@H](N)C[C@H](N)[C@H]3O[C@H]3O[C@H](CO)[C@@H](O)[C@H](O)[C@H]3N)O[C@@H]2CO)[C@H](N)[C@@H](O)[C@@H]1O [Paromomycin sulfate]
percent Bodipy-positive cells: 10 ± 0.21%

CC[C@]1(O)C[C@H]2CN(CCc3c([nH]c4ccccc34)[C@@](C(=O)OC)(c3cc4c(cc3OC)N(C=O)[C@H]3[C@@](O)(C(=O)OC)[C@H](OC(C)=O)[C@]5(CC)C=CCN6CC[C@]43[C@@H]65)C2)C1 [Vincristine]
percent Bodipy-positive cells [3]: 50.7 ± 0.43%
percent Bodipy-positive cells [2]: 73.4 ± 5.2%

COc1ccccc1OCC(O)CO (centres undefined) [Guaifenesin]
percent Bodipy-positive cells: 11.2 ± 7.1%
percent Bodipy-positive cells [3]: 6.93 ± 5.4%
percent Bodipy-positive cells [2]: 29.4% and 10.5%

Cc1c(N(C)C)c(=O)n(-c2ccccc2)n1C [Aminophenazone]
percent Bodipy-positive cells [2]: 14.3 ± 0.88%

Cc1c(N(C)C)c(=O)n(-c2ccccc2)n1C [Amidopyrine]
percent Bodipy-positive cells: 29.1 ± 2.4%
percent Bodipy-positive cells [3]: 8.39 ± 6.8%
percent Bodipy-positive cells [2]: 15 ± 4.2%

Cc1c(N(C)C)c(=O)n(-c2ccccc2)n1C [Aminopyrine]
percent Bodipy-positive cells (library stock concentration: 8.6 mM): 13.6 ± 2.8%

Oc1c(Cl)cc(Cl)c(Cl)c1Cc1c(O)c(Cl)cc(Cl)c1Cl [Hexachlorophene]
percent Bodipy-positive cells (library stock concentration: 4.9 mM): 12.3 ± 3.8%
percent Bodipy-positive cells [2]: 37.5 ± 12%

Oc1c(Cl)cc(Cl)c(Cl)c1Cc1c(O)c(Cl)cc(Cl)c1Cl
percent Bodipy-positive cells [2]: 55.2 ± 4%

CCCCC[C@H](O)/C=C/C1=C(CCCCCCC(=O)O)C(=O)CC1 [Prostaglandin B1]
percent Bodipy-positive cells [1]: 12.1% and 12.3%

CCOc1cc2ncc(C#N)c(Nc3ccc(F)c(Cl)c3)c2cc1NC(=O)/C=C/CN(C)C [Pelitinib (EKB-569)]
percent Bodipy-positive cells [2]: 98.8 ± 1.8%

CCOc1cc2ncc(C#N)c(Nc3ccc(F)c(Cl)c3)c2cc1NC(=O)/C=C/CN(C)C
percent Bodipy-positive cells [4]: 22.6 ± 2.7%
percent Bodipy-positive cells [5]: 13 ± 2.8%
percent Bodipy-positive cells [6]: 40.7 ± 6.1%

CCCc1c(-c2ccc(O)cc2)nn(-c2ccc(O)cc2)c1-c1ccc(O)cc1 [Propylpyrazole Triol]
percent Bodipy-positive cells [1]: 8.06 ± 1.5%

CCCc1c(-c2ccc(O)cc2)nn(-c2ccc(O)cc2)c1-c1ccc(O)cc1 [1,3,5-tris(4-hydroxyphenyl)-4-propyl-1H-pyrazole]
percent Bodipy-positive cells [2]: 45.3 ± 16%

NC(=O)c1ccc2[nH]ccc2c1
percent Bodipy-positive cells [5]: 20.7 ± 1.3%
percent Bodipy-positive cells [6]: 14 ± 4.4%

C=C1C(=O)[C@]23[C@H](O)[C@H]1CC[C@H]2[C@@]12CO[C@]3(O)[C@@H](O)[C@@H]1C(C)(C)CC[C@@H]2O [Oridonin]
percent Bodipy-positive cells [3]: 15.3 ± 5.4%
percent Bodipy-positive cells [2]: 99.55 ± 0.63%

Cc1ccc(-c2ccc3c(ccc4sc5c(c43)NC[C@@H](C)NC5=O)n2)cn1
percent Bodipy-positive cells [2]: 93.9 ± 1.5%
